This assay can be described thus: qHTS Assay to Find Inhibitors of Chronic Active B-Cell Receptor Signaling. Conditions: ABC-DLBCL IkBa-CBG/CBR reporter, luminescence ratio (green luciferase fused to IkBa over red control in TMD8 lymphoma cells), 4 h. In a few lines:
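Compounds up to 46 uM were incubated four hours with TMD8 cells whose green CBG68 luciferase is fused to IkappaBalpha; red CBR luminescence normalised the signal, and concentration-effect curves were fitted to fusion, red and ratio data.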
For orientation: Quantitative high-throughput screening tests each substance at several concentrations.

[1] abbreviates: measured here: CBR red luminescence, cell number.
The mark [2] stands for this setting: measured here: IkBa-CBG green luminescence.

The other results are listed elsewhere or left out. Further columns of the screen follow, without active or inactive calls. Compounds called inactive in the main read-out are mostly missing here. Words in brackets tell the shape of the fitted curve; partial curves, single points and poor fits give uncertain potencies.

Regarding `CCCC(=O)Nc1nnc(S(=O)(=O)N(CC(C)C)c2ccccc2)s1`, the AC50 (usually the midpoint of the concentration-response curve, whichever way the signal moves) under setting [1] was 3.55 µM [falling, single point].
Still for that read-out and setting: under `COc1ccc(-c2cc3ncc(C(C)=O)c(C)n3n2)cc1` stands 0.316 µM [rising, full curve, poor fit].
For the compound `COc1ccccc1CCC(=O)OCC(=O)NC1CCCC1`, the AC50 under setting [1] is 29.1 µM [rising, single point].
As for `O=C(/C=C/c1ccc2c(c1)OCO2)NCCSCc1c(Cl)cccc1Cl`, the AC50 under setting [1] was 5.8 µM [falling, full curve].
`COc1ccc(CNC(=O)c2ccc(-c3ccccc3)cc2)cc1`: the AC50 under setting [1] is 11.2 µM [falling, partial curve, poor fit].
Still for that read-out and setting: next, `Cc1cc(C)c(S(=O)(=O)NCC(=O)NCc2cc(=O)n(C)c(=O)n2C)c(C)c1`: 4.47 µM [rising, partial curve, poor fit]; `Cc1c(C(=O)Nc2cccc(Cl)c2)c2ccccn2c1CCc1ccncc1`: 3.66 µM [rising, single point]; `CCNC(=S)NNC(=O)c1csc(C)c1`: 8.2 µM [falling, partial curve, poor fit].
Consider `O=C(COC(=O)c1cccc(S(=O)(=O)N2CCOCC2)c1)Nc1ccc2c(c1)OCO2`, for which the AC50 under setting [1] was 0.708 µM [rising, full curve, poor fit].
Regarding `CCOC(=O)C1=C(COC(=O)c2ccccc2[N+](=O)[O-])NC(=O)NC1C` (configuration not stated), the AC50 under setting [1] was 0.731 µM [rising, partial curve, poor fit].
Still for that read-out and setting: next, `CCn1ccnc1CN1CCN(CC(C)C)C(CCO)C1` (configuration not stated): 6.31 µM [rising, single point]; `[O-][n+]1c2cc(C(F)(F)F)ccc2c2n1CCN=C2c1ccc(Cl)cc1`: 7.31 µM [falling, partial curve, poor fit].
On to `COc1cc(Br)c(-c2sc(Nc3ccccc3)n[n+]2-c2ccc(F)cc2)cc1OC`, for which, under setting [1], the concentration at half-maximal activity (AC50) is 15.8 µM [falling, single point].
Same read-out and setting: under `Cc1[nH]c2ccccc2c1CN1CCC(Cc2ccccc2)CC1` stands 35.5 µM [falling, single point].
In the case of `Cc1ccc(C(=O)c2cc3c(cc2N)OCCO3)cc1`, the AC50 under setting [1] was 25.9 µM [falling, single point].
As to `CCc1ccc(NC(=O)c2ccc(C3SCC(=O)N3CCc3ccccc3)cc2)cc1` (configuration not stated), the half-maximal activity concentration (AC50) under setting [1] is 29.1 µM [falling, single point].
Regarding `COc1ccc(C(=O)NCCSCc2ccccc2)cc1OC`, the AC50 under setting [1] is 3.55 µM [falling, partial curve, poor fit].
For the compound `CCOC(=O)c1sc(=S)n(C)c1NC(=O)c1cccc(Br)c1`, the AC50 under setting [1] was 12.6 µM [falling, single point].
With `CC1CCCCC1NC(=S)NC(=O)c1sc2ccccc2c1Cl` (configuration not stated), the AC50 under setting [1] was 0.316 µM [falling, full curve].
As to `Cc1cc(C(=O)CCl)c(C)n1CC1COc2ccccc2O1` (configuration not stated), the AC50 under setting [1] was 22.4 µM [falling, single point].
Turning to `Cc1ccc2c(=O)n3c(nc2c1)C(Cc1ccccc1)NC(=O)c1ccc(Cl)cc1-3` (configuration not stated), under setting [1], the AC50 was 0.461 µM [rising, full curve, poor fit].
As for `CSc1ccc(COC(=O)c2cc([N+](=O)[O-])ccc2N2CCOCC2)cc1`, the AC50 by setting is: under setting [1], 2.31 µM [rising, full curve]; under setting [2], 2.91 µM [falling, partial curve].
`O=S(=O)(c1ccccc1)N1N=C(c2ccc(Cl)cc2)CC1c1ccco1` (configuration not stated): the AC50 under setting [1] was 25.9 µM [falling, partial curve, poor fit].
Take `CCOC(=O)N1CCC(NC(=O)CCN2C(=O)C3C4C=CC(C4)C3C2=O)CC1` (configuration not stated): the AC50 under setting [1] was 20.6 µM [rising, single point].
On the same count and under the same terms, next, `O=[N+]([O-])c1cccc(C(=Nc2ccccc2)NO)c1`: 0.461 µM [falling, full curve, poor fit]; `Cc1noc(C)c1CCC(=O)N1CCCC(CCC(=O)NCc2ccccc2F)C1` (configuration not stated): 7.08 µM [rising, partial curve, poor fit]; `O=C(Nc1ncc([N+](=O)[O-])s1)C1CC(=O)N(c2ccc(F)cc2)C1` (configuration not stated): 7.08 µM [rising, full curve, poor fit].
For the compound `Cc1nc(-c2ccc(S(=O)(=O)N3CCCCCC3)cc2)cs1`, under setting [1], the AC50 is 3.16 µM [rising, full curve].
Turning to `Cc1csc2ncnc(NNC(=O)c3ccc(Cl)cc3)c12`, under setting [2], the AC50 was 17.8 µM [falling, single point].
As to `CN(C)S(=O)(=O)c1ccc(NC(=O)N2CCN(c3ccccc3Cl)CC2)cc1`, under setting [1], the AC50 was 13 µM [rising, partial curve, poor fit].
On to `CCCCCC(=O)NC(=S)Nc1ccc(Br)cc1C`, for which the concentration at half-maximal activity (AC50) under setting [1] is 20.6 µM [rising, single point].
For the compound `CS(=O)(=O)c1cccc(C(=O)OCCCC(=O)c2ccccc2)c1`, the AC50 under setting [1] is 1.46 µM [rising, partial curve, poor fit].
With `C=CCNc1cc(C)oc(=O)c1C(=O)CCC`, the AC50 under setting [1] was 9.2 µM [rising, partial curve, poor fit].
`CCOC(=O)c1sc2c(c1C)c(=O)n(Cc1ccccc1)c(=O)n2CCN(C)C`: the AC50 under setting [1] was 2.24 µM [falling, partial curve].
For `COC(=O)c1ccc(=O)c2nc3/c(=C/O)c(O)cc(=O)c3[nH]c12`, the AC50 under setting [1] is 20 µM [rising, partial curve, poor fit].
With `Cc1ccc(/C=C/C(=O)Nc2ccc(S(N)(=O)=O)cc2)o1`, the AC50 under setting [1] was 7.08 µM [falling, partial curve].
Regarding `COc1ccc(N/C(C)=C/C(=O)c2ccccc2)cc1`, the AC50 under setting [1] was 2.06 µM [rising, partial curve, poor fit].
Turning to `COc1cc(C)c(NC(=O)C(=S)NCc2ccccc2)cc1C`, the AC50 under setting [1] was 10 µM [rising, partial curve].
In the case of `COc1cc(/C=N/NC(=O)c2ccc(NS(=O)(=O)c3cccs3)cc2)cc(OC)c1O`, the AC50 under setting [1] was 16.4 µM [falling, partial curve].
On to `Cc1cc(-c2nnc(-c3cccc(Cl)c3)o2)no1`, for which the AC50 under setting [1] was 7.08 µM [rising, full curve, poor fit].
`CC(/C=C/c1cccc([N+](=O)[O-])c1)=N\NC(=O)c1ccncc1`: the half-maximal activity concentration (AC50) under setting [1] was 32.6 µM [falling, single point].

(Values after PubChem BioAssay AID493014 (National Center for Advancing Translational Sciences (NCATS), 2011).)
